Values of other authors, collected in patent publication US20170223961A1, “HERBICIDAL FORMULATION WITH DOUBLE ACTION MECHANISM FOR CONTROLLING WEEDS, METHOD FOR CONTROLLING UNDESIRABLE WEEDS AND METHOD FOR INCREASING HARVEST YIELD” (FMC QUÍMICA DO BRASIL LTDA, priority 2014, published 2017).
The name of at least one read-out is uncertain.

Settings: diuron: average, field conditions

Compound: CN(C)C(=O)Nc1ccc(Cl)c(Cl)c1 [diuron, 3-(3,4-dichlorophenyl)-1,1-dimetilurea]
- persistence in the soil, half life (½ life): 90 days
